From patent US20260060936A1, “INDOLIUM-BASED STABILIZERS OF HYDROPHOBIC DRUGS” (TECHNION RESEARCH & DEVELOPMENT FOUNDATION LTD., priority 2022, published 2026)
Some of these results come from one statement about several compounds together.

System: KPL cells
Conditions: KPL lung metastases; 10 mg/kg IP; non-treated mice 22 days; P=0.0042
Procedure: KRAS driven lung tumor studies. Six-weeks-old female C57BL/6J mice strain were purchased from Envigo RMS. Inducing tumors in the lung was done by injecting 10^5 KPL cells suspended in 200 μl of PBS intravenously (IV) via the tail vein. […] For efficacy studies, treatments were administered biweekly for ten weeks. For safety studies, immunohistochemistry (H&E) was done on treated mice. Animals were euthanized using CO2 inhalation. Mice were housed in air-filtered laminar flow cabinets with a 12-hr light/dark cycle and food and water ad libitum.

Structure (SMILES): CC(=O)Nc1cccc(-n2c(=O)n(C3CC3)c(=O)c3c(Nc4ccc(I)cc4F)n(C)c(=O)c(C)c32)c1 [trametinib]
- median survival: up to 49 days
